In PubChem BioAssay AID328 (DTP/NCI, 2004):
The list is a part of this screen's results and no random one: it is rich in T/C values a quarter to a half above the control, in often repeated tests (any T/C) and in doses without a T/C. Further doses and runs are listed elsewhere. T/C gives the treated animals as a percentage of the vehicle group. Some entries give survivors of the animals treated and no T/C: the source holds a T/C of zero for them, seemingly a mark for toxic or unscored doses. Some doses without a T/C left all or most animals alive at the check, yet need not have been tolerated: the source hardly ever lists a survival T/C far under the control, and the zero likely stands for such cases as well. Counts of survivors are from the toxicity check (mostly the fifth day) where no day follows; animals may have died later. Schedule codes are those of the source, read here as Q, the interval in days (D) or hours (H), X, the number of doses. Some entries hold several experiments; the values are given in rising order. For survival time, this PubChem deposit counts one and a half times the control or more as active, and values a quarter to a half above the control carry no call in these data; other NCI protocols may use other cut-offs. Some T/C values carry the count of animals alive at the toxicity check (mostly the fifth day); without a count, all were alive then.

System: BDF1 mice, P388 leukemia ip, median survival T/C
Assay: NCI In Vivo Anticancer Drug Screen. Data for tumor model P388 Leukemia (intraperitoneal) in B6D2F1 (BDF1) mice
Conditions: T/C endpoint: median survival time, higher T/C = longer survival
Experimental: The antitumor activity of compounds was measured in mice bearing transplantable tumors. Survival or tumor size were measured and the results are expressed as the measurement made in the treated group (T) divided by the measurement made in the vehicle treated control group (C). The tumor model used in this assay is P388 Leukemia (intraperitoneal) in B6D2F1 (BDF1) mice

[1] = dose: 200.0 mg/kg/injection, schedule: Q01DX009 (ip), vehicle: saline with Tween-80
[2] = dose: 100.0 mg/kg/injection, schedule: Q01DX009 (ip), vehicle: saline with Tween-80
[3] = dose: 100.0 mg/kg/injection, schedule: Q04DX003 (ip), vehicle: saline with Tween-80
[4] = dose: 200.0 mg/kg/injection, schedule: Q01DX009 (ip), vehicle: Klucel (hydroxypropylcellulose) (HPC)
[5] = dose: 4.5 mg/kg/injection, schedule: Q01DX009 (ip), vehicle: saline
[6] = dose: 12.5 mg/kg/injection, schedule: Q01DX009 (ip), vehicle: saline
[7] = dose: 50.0 mg/kg/injection, schedule: Q04DX003 (ip), vehicle: saline
[8] = dose: 100.0 mg/kg/injection, schedule: Q04DX003 (ip), vehicle: saline
[9] = dose: 200.0 mg/kg/injection, schedule: Q04DX003 (ip), vehicle: saline
[10] = dose: 400.0 mg/kg/injection, schedule: Q04DX003 (ip), vehicle: saline
[11] = dose: 150.0 mg/kg/injection, schedule: Q01DX009 (ip), vehicle: Klucel (hydroxypropylcellulose) (HPC)
[12] = dose: 400.0 mg/kg/injection, schedule: Q04DX003 (ip), vehicle: Klucel (hydroxypropylcellulose) (HPC)

For CC1CCC2(C)CCC3(C)C(=CCC4C5(C)CCC(O)C(C)(C)C5CCC43C)C2C1C (stereo not given), the survivor count (dose: 200.0 mg/kg/injection, schedule: Q01DX009 (ip), vehicle: water) was 10 of 10.

COc1c(OC)c(OC)c2c(c1OC)c(=O)c1ccccc1n2C was tested, and the T/C (dose: 200.0 mg/kg/injection, schedule: Q01DX010 (ip), vehicle: carboxymethylcellulose (CMC)) was 145 % of control [5 of 6 alive].

In the case of CCCCN(c1ccccc1)c1ncnc2c1cnn2C, the survivor count [1] is reported as 5 of 6.

OC(c1cc(C23CC4CC(CC(C4)C2)C3)nc2c(Cl)cc(Cl)cc12)C1CCCCN1 (stereo not given) was tested, and the survivor count [2] was 6 of 6 and the survivor count [1] was 2 of 6.

Cn1c(=O)c2[nH]c(CN(CCCl)CCCl)nc2n(C)c1=O was tested, and the T/C (dose: 1.6 mg/kg/injection, schedule: Q01DX009 (ip), vehicle: saline with Tween-80) was 146 % of control, the T/C (dose: 3.0 mg/kg/injection, schedule: Q04DX003 (ip), vehicle: saline with Tween-80) was 133 % of control and the T/C (dose: 18.7 mg/kg/injection, schedule: Q01DX009 (ip), vehicle: saline with Tween-80) was 140 % of control. The survivor count [3] was 6 of 6, the survivor count (dose: 200.0 mg/kg/injection, schedule: Q04DX003 (ip), vehicle: saline with Tween-80) was 0 of 6 and the survivor count (dose: 400.0 mg/kg/injection, schedule: Q04DX003 (ip), vehicle: saline with Tween-80) was 0 of 6.

O=C(CC(c1ccccc1)C(C(=O)O)c1ccccc1)c1ccccc1 (stereo not given) was tested, and the T/C [4] was 138 % of control [5 of 6 alive].

CC[C@H]1CN2CCc3cc(OC)c(OC)cc3[C@@H]2C[C@@H]1C[C@H]1NCCc2cc(O)c(OC)cc21 was tested, and the T/C (dose: 0.2 mg/kg/injection, schedule: Q01DX010 (ip), vehicle: saline) was 127 % of control, the T/C (dose: 0.5 mg/kg/injection, schedule: Q01DX010 (ip), vehicle: saline) was 136 % of control and the survivor count (dose: 2.0 mg/kg/injection, schedule: Q01DX010 (ip), vehicle: saline) was 6 of 6. The survivor count (dose: 4.0 mg/kg/injection, schedule: Q01DX010 (ip), vehicle: saline) was 0 of 6 and 6 of 6 and the survivor count (dose: 16.0 mg/kg/injection, schedule: Q01DX010 (ip), vehicle: saline) was 5 of 6.

CCNC(C)(C)C(SS(=O)(=O)O)c1cccs1 (stereo not given) was tested, and the survivor count (dose: 400.0 mg/kg/injection, schedule: Q01DX009 (ip), vehicle: water) was 2 of 6.

In the case of CC1CN1CC(O)C(O)CN1CC1C (stereo not given), the T/C (dose: 2.0 mg/kg/injection, schedule: Q04DX003 (ip), vehicle: saline) is reported as 140 % of control, the T/C (dose: 3.0 mg/kg/injection, schedule: Q01DX009 (ip), vehicle: saline) is reported as 133 % of control and the T/C (dose: 3.0 mg/kg/injection, schedule: Q04DX003 (ip), vehicle: saline) is reported as 140 % of control. For the same compound, the T/C [5] was 133 % of control, the survivor count [5] was 6 of 6 and the T/C (dose: 7.5 mg/kg/injection, schedule: Q04DX003 (ip), vehicle: saline) was 131 % of control. The survivor count [6] was 6 of 6, the survivor count (dose: 12.5 mg/kg/injection, schedule: Q04DX003 (ip), vehicle: saline) was 6 of 6 and the survivor count (dose: 15.0 mg/kg/injection, schedule: Q04DX003 (ip), vehicle: saline) was 5 of 6. For the same compound, the survivor count (dose: 25.0 mg/kg/injection, schedule: Q01DX009 (ip), vehicle: saline) was 1 of 6, the survivor count (dose: 25.0 mg/kg/injection, schedule: Q04DX003 (ip), vehicle: saline) was 5 of 6 and the survivor count [7] was 1 of 6. For the same compound, the survivor count [8] was 0 of 6, the survivor count [9] was 0 of 6 and the survivor count [10] was 0 of 6.

In the case of CC(=O)OC1=CCC(C(C)(C)C)CC1 (stereo not given), the survivor count (dose: 55.0 mg/kg/injection, schedule: Q01DX009 (ip), vehicle: Klucel (hydroxypropylcellulose) (HPC)) is reported as 6 of 6, the survivor count (dose: 80.0 mg/kg/injection, schedule: Q01DX009 (ip), vehicle: Klucel (hydroxypropylcellulose) (HPC)) is reported as 0 of 6 and the survivor count (dose: 82.5 mg/kg/injection, schedule: Q04DX003 (ip), vehicle: Klucel (hydroxypropylcellulose) (HPC)) is reported as 2 of 6. For the same compound, the survivor count (dose: 165.0 mg/kg/injection, schedule: Q04DX003 (ip), vehicle: Klucel (hydroxypropylcellulose) (HPC)) was 0 of 6.

CC(/C=C/C1(C)C(C)CCC(=O)C1C)=C\Cc1c(O)c(Cl)c(C)c(C=O)c1O (stereo not given) was tested, and the survivor count (dose: 50.0 mg/kg/injection, schedule: Q04DX003 (ip), vehicle: saline with Tween-80) was 0 of 6 and the survivor count [3] was 0 of 6.

With c1nc(SC2CCCC2)c2[nH]cnc2n1 the survivor count (dose: 400.0 mg/kg/injection, schedule: Q01DX009 (ip), vehicle: saline with Tween-80) was 0 of 6.

With C#CCOCC1CN(C)C(=O)O1 (stereo not given) the survivor count [8] was 6 of 6 and the survivor count [10] was 6 of 6.

Cn1c2ccccc2c2ccc3c(c21)C(=O)C=CC3=O was tested, and the survivor count (dose: 50.0 mg/kg/injection, schedule: Q01DX009 (ip), vehicle: saline with Tween-80) was 4 of 6, the T/C [2] was 125 % of control [4 of 6 alive] and the survivor count [1] was 2 of 6.

Cc1ccc(SC2CC3CC2C2COCC32)cc1 (stereo not given) was tested, and the survivor count [11] was 4 of 6 and the survivor count (dose: 225.0 mg/kg/injection, schedule: Q01DX009 (ip), vehicle: Klucel (hydroxypropylcellulose) (HPC)) was 2 of 6.

With Cc1ccc(N2C(=O)CC(Sc3ccccc3N)C2=O)cc1 (stereo not given) the survivor count [12] was 6 of 6.

CC(=O)OCC(C)OC(C)=O (stereo not given) was tested, and the survivor count (dose: 400.0 mg/kg/injection, schedule: Q01DX009 (ip), vehicle: saline) was 6 of 6.

In the case of O=S1(=O)OCc2ccccc21, the survivor count [4] is reported as 2 of 6 and the survivor count [12] is reported as 4 of 6.

In the case of COC(=O)/C(=N\NS(=O)(=O)c1ccc(C)cc1)c1ccccc1, the T/C (dose: 12.5 mg/kg/injection, schedule: Q04DX003 (ip), vehicle: Klucel (hydroxypropylcellulose) (HPC)) is reported as 125 % of control.

In the case of NC(=O)c1ccc(Cl)c(Cl)c1, the survivor count (dose: 400.0 mg/kg/injection, schedule: Q04DX003 (ip), vehicle: other) is reported as 2 of 6.

O=C1C(C(O)c2ccccc2)SC(c2ccccc2)N1c1ccccc1 (stereo not given) was tested, and the survivor count (dose: 100.0 mg/kg/injection, schedule: Q04DX003 (ip), vehicle: Klucel (hydroxypropylcellulose) (HPC)) was 5 of 6 and the survivor count (dose: 200.0 mg/kg/injection, schedule: Q04DX003 (ip), vehicle: Klucel (hydroxypropylcellulose) (HPC)) was 6 of 6.

With Nc1ncc([N+](=O)[O-])c(Cl)n1 the survivor count [1] was 6 of 6.

For Nc1[nH]c(=S)[nH]c(=O)c1N, the survivor count [11] was 3 of 6, the survivor count (dose: 300.0 mg/kg/injection, schedule: Q01DX009 (ip), vehicle: Klucel (hydroxypropylcellulose) (HPC)) was 2 of 6 and the survivor count (dose: 400.0 mg/kg/injection, schedule: Q01DX001 (ip), vehicle: Klucel (hydroxypropylcellulose) (HPC)) was 2 of 6.

In the case of OCCN1CCN(CC/C=C2/c3ccccc3Sc3ccc(Cl)cc32)CC1, the T/C [6] is reported as 131 % of control, the T/C (dose: 18.7 mg/kg/injection, schedule: Q01DX009 (ip), vehicle: saline) is reported as 125 % of control and the T/C (dose: 22.0 mg/kg/injection, schedule: Q04DX003 (ip), vehicle: saline) is reported as 140 % of control. The survivor count (dose: 50.0 mg/kg/injection, schedule: Q01DX009 (ip), vehicle: saline) was 4 of 6, the survivor count [7] was 0 of 6 and the survivor count (dose: 75.0 mg/kg/injection, schedule: Q04DX003 (ip), vehicle: saline) was 0 of 6. The survivor count [8] was 5 of 6, the survivor count [9] was 0 of 6 and the survivor count [10] was 0 of 6.

With c1ccc(C[P+](c2ccccc2)(c2ccccc2)c2ccccc2)cc1 the survivor count (dose: 12.5 mg/kg/injection, schedule: Q01DX009 (ip), vehicle: Klucel (hydroxypropylcellulose) (HPC)) was 3 of 6.

For CC(=O)OC1CCC2(C)C3CCC4(C)C(=CCC5(C(=O)O)CCC(C)(C)CC45)C3(C)CCC2C1(C)C (stereo not given), the T/C (dose: 1.4 mg/kg/injection, schedule: Q01DX009 (ip), vehicle: alcohol) was 128 % of control.
